Experimental data from paper PMC10625211.
These are yes or no findings as the source states them, for the method shown. Binding seen in cells or lysates may run through a third protein. Some results given as binding are weak or reduced against the parent protein; the word gives no strength. Where a sequence is shown, tags or fusion partners need not be part of it.

Biological target: T1, Flag-tagged APOL1-G0 (human) (UniProt O14791)
T1 sequence: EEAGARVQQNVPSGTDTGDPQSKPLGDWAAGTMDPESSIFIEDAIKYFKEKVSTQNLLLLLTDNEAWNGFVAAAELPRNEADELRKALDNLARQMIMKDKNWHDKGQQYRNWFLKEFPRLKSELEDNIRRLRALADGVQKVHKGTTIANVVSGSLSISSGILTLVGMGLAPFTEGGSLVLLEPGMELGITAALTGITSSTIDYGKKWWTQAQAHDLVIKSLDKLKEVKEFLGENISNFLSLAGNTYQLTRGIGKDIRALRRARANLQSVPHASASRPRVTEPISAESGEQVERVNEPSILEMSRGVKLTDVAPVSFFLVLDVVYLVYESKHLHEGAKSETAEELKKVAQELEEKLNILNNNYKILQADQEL
Assay: co-IP; HEK 293T cells co-transfected with Flag-tagged APOL1 variant (100 ng) and HA-tagged SNARE (900 ng), harvested 16 h after transfection; lysis in 50 mM Tris-HCl pH 7.4, 150 mM NaCl, 2 mM MgCl2, 0.5% Nonidet P-40; immunoprecipitation with anti-Flag M2 affinity gel, immunoblotting with Flag or HA antibody

B1: HA-tagged dSyb (protein, UniProt P18489 1-152)
chain: MENNEAPSPSGSNNNDFPILPPPPNANDNYNQFGDHQIRNNNAAQKKLQQTQAKVDEVVGIMRVNVEKVLERDQKLSELGERADQLEQGASQFEQQAGKLKRKQWWANMKMMIILGVIAVVLLIIVLVSVWPSSSDSGSGGGNKAITQAPPH
B1 was tested, and the binding was “binds”.
